Test results reported in article PMC9221213.
No constants are given. Whether binding was seen depends on the method and setting. In cells and extracts the contact can be indirect. Some results given as binding are weak or reduced against the parent protein; the word gives no strength.

Target: T1, Caveolin-1 (dog) (UniProt P33724)
T1 sequence: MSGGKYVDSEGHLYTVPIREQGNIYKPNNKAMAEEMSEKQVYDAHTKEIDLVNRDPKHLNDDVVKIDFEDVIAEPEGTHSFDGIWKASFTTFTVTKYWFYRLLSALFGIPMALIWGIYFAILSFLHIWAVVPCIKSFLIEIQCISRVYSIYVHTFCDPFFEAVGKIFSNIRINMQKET
Test: co-IP; CAV1 immunoprecipitated with a polyclonal anti-CAV1 antibody (2.5 ug) from protein extracts (2 mg total protein) of B16F10(Mock) and B16F10(CAV1) cells; PTP1B detected by immunoblot

binding: binds
B1: non-receptor protein tyrosine phosphatase type 1B (enzyme, UniProt P35821 1-432)
chain: MEMEKEFEEIDKAGNWAAIYQDIRHEASDFPCKVAKLPKNKNRNRYRDVSPFDHSRIKLHQEDNDYINASLIKMEEAQRSYILTQGPLPNTCGHFWEMVWEQKSRGVVMLNRIMEKGSLKCAQYWPQQEEKEMVFDDTGLKLTLISEDVKSYYTVRQLELENLTTKETREILHFHYTTWPDFGVPESPASFLNFLFKVRESGSLSLEHGPIVVHCSAGIGRSGTFCLADTCLLLMDKRKDPSSVDIKKVLLEMRRFRMGLIQTADQLRFSYLAVIEGAKFIMGDSSVQDQWKELSREDLDLPPEHVPPPPRPPKRTLEPHNGKCKELFSSHQWVSEETCGDEDSLAREEGRAQSSAMHSVSSMSPDTEVRRRMVGGGLQSAQASVPTEEELSSTEEEHKAHWPSHWKPFLVNVCMATLLATGAYLCYRVCFH
